Data taken from PubChem BioAssay AID488982, deposited by NCATS (2010).

By UniProt entry, the sequences of proteins in these tests, tags left out.
UniProt P21728, whole entry, target on record: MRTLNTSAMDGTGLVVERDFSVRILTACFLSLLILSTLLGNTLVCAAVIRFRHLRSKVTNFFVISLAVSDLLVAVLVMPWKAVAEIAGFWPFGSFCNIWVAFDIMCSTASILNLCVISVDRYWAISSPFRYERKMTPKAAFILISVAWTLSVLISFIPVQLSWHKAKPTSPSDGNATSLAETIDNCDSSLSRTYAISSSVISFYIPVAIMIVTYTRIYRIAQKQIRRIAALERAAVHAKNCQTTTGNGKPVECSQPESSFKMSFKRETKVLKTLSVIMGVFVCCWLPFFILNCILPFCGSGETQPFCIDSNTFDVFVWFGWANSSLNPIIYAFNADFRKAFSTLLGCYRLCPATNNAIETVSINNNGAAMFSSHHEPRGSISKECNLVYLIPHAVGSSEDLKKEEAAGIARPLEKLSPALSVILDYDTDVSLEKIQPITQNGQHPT

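Human D1 dopamine receptor in inducible HEK293 T-REx cells; calcium flux tracked by kinetic fluorescence for roughly three minutes after a low dopamine dose, seeking potentiators. Compounds were tested as a dilution series from about 0.0027 to 8.4 µM. The value is a fitted AC50 potency; a lower number means a more potent enhancer of the calcium response. Calls come from the curve class and fitted AC50 turned into a score, where 40–100 is active, 1–39 is inconclusive and 0 is inactive.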

Values are in nM. All entries here are filed as inconclusive. These entries are mostly ones the record files as inconclusive; other results of the assay are not listed here. Potencies fitted to partial, single-point or poorly fitting curves are rough. Activity scores are not listed here.

For CCN1C[C@@]2(COC)C3[C@@H](OC)C4[C@@H]1C3([C@@H]1C[C@]3(O)[C@H](OC(=O)c5ccccc5)[C@@H]1[C@]4(OC(C)=O)[C@@H](O)[C@@H]3OC)[C@H](OC)C[C@H]2O the result was fitted potency 205.9 nM (activator, full curve, poor fit).
For CC(C)(C=O)Cc1cc(C(C)(C)C)c(O)c(C(C)(C)C)c1 the result was fitted potency 3264 nM (activator, single point).
For CCCCCCC(C)(C)c1ccc([C@@H]2C[C@H](O)CC[C@H]2CCCO)c(O)c1 the result was fitted potency 5804 nM (activator, single point).
For NNC(=O)c1ccc(O)cc1 the result was fitted potency 1032 nM (activator, partial curve).
For NCCc1c[nH]c2ccc(C(N)=O)cc12 the result was fitted potency 4.1 nM (activator, full curve, poor fit).
For CCCCCN(CCCCC)C(=O)C(CCC(=O)O)NC(=O)c1ccc(Cl)c(Cl)c1 (stereo unspecified) the result was fitted potency 3264 nM (activator, partial curve, poor fit).
For O=c1c(O)c(-c2ccc(O)cc2O)oc2cc(O)cc(O)c12 the result was fitted potency 103.2 nM (activator, single point).
For Fc1cccc(/C=N/N=C/c2cccc(F)c2)c1 the result was fitted potency 1836 nM (activator, partial curve).
For CCCCCCCC/C=C\CCCCCCCC(=O)NCc1ccc(O)c(OC)c1 the result was fitted potency 1458 nM (activator, partial curve).
For C[C@H]1C2Cc3ccc(O)cc3[C@]1(C)CCN2CC1CC1 the result was fitted potency 517.3 nM (activator, full curve, poor fit).
For CC(=O)OCC1=C(C(=O)O)N2C(=O)[C@@H](NC(=O)CCC[C@@H](N)C(=O)O)[C@H]2SC1 the result was fitted potency 5804 nM (activator, single point).
For O=[N+]([O-])c1ccc(-c2nc(-c3ccc(F)cc3)c(-c3ccncc3)[nH]2)cc1 the result was fitted potency 6513 nM (activator, partial curve, poor fit).
For Cn1cc(C2=C(c3ccc(Cl)cc3Cl)C(=O)NC2=O)c2ccccc21 the result was fitted potency 5804 nM (activator, single point).
For C=CCN1C[C@@H](C)N([C@H](c2ccc(C(=O)N(CC)CC)cc2)c2cccc(OC)c2)C[C@@H]1C the result was fitted potency 2311 nM (activator, single point).